Results: patent publication US7906486B2, “Method of treating or preventing tissue deterioration, injury or damage due to disease of mucosa” (SciClone Pharmaceuticals, Inc., priority 2007, dated 2011)
Values joined by “and” are separate entries in the source; they are usually repeats but may differ in a detail not shown here. Equal entries are not always repeated. The source gives many values for each of these; only a part stands here.

Assay: Weights and survival (Example 3, SCI-03)
Format: in vivo, Syrian Golden Hamsters
Details: individual animals
Description: All animals were weighed daily and their survival recorded, in order to assess possible differences in animal weight among treatment groups as an indication for mucositis severity and/or possible toxicity resulting from the treatments.
There were no significant differences in weight changes between study groups. The mean daily percent weight change data was evaluated. The saline treated control hamsters gained an average of 76.3% of their starting weight during the study. Hamsters in the group receiving SCV-07 at 100 μg/kg on days −1 to 29 gained an average of 80.7% of their starting weight during the study. Hamsters in the group receiving SCV-07 at 100 μg/kg on days of radiation only gained an average of 66.3% of their starting weight during the study. Hamsters in the group receiving SCV-07 at 100 μg/kg on day −1, day 4, day 5 and days 10-29 gained an average of 69.7% of their starting weight during the study. The significance of these differences was evaluated by calculating the area-under-the-curve (AUC) for the weight gain of each animal, and then comparing the different treatment groups using a One-Way ANOVA test.

With `N[C@H](CCC(=O)N[C@@H](Cc1c[nH]c2ccccc12)C(=O)O)C(=O)O` [SCV-07, γ-D-glutamyl-L-tryptophan] the Animal weight (Group 3 (SCV-07 on days of radiation 0-3 and 6-9), day 18) was 117 and 109 and 137 and 101 and 104 (2×) and 102 and 108 (2×) and 87, the Animal weight (Group 3 (SCV-07 on days of radiation 0-3 and 6-9), day 19) was 122 and 112 and 138 and 105 and 108 and 106 and 111 and 113 and 107 and 90 and the Animal weight (Group 3 (SCV-07 on days of radiation 0-3 and 6-9), day 20) was 123 and 114 (2×) and 141 and 107 (2×) and 109 and 108 and 112 and 90. For the same compound, the Animal weight (Group 3 (SCV-07 on days of radiation 0-3 and 6-9), day 21) was 124 and 115 and 141 and 108 (2×) and 109 (2×) and 114 (2×) and 93, the Animal weight (Group 3 (SCV-07 on days of radiation 0-3 and 6-9), day 22) was 127 and 114 and 144 and 108 and 112 and 111 (2×) and 115 and 118 and 93 and the Animal weight (Group 3 (SCV-07 on days of radiation 0-3 and 6-9), day 23) was 127 and 121 and 152 and 113 (3×) and 118 and 120 and 114 and 96. The Animal weight (Group 3 (SCV-07 on days of radiation 0-3 and 6-9), day 24) was 128 and 122 and 148 and 114 and 115 (3×) and 120 and 121 and 95, the Animal weight (Group 3 (SCV-07 on days of radiation 0-3 and 6-9), day 25) was 128 and 121 (2×) and 150 and 115 and 116 (2×) and 122 and 114 and 95 and the Animal weight (Group 3 (SCV-07 on days of radiation 0-3 and 6-9), day 26) was 131 and 124 (2×) and 153 and 119 (2×) and 117 and 122 and 120 and 97. The Animal weight (Group 3 (SCV-07 on days of radiation 0-3 and 6-9), day 27) was 133 and 125 and 158 and 119 (3×) and 124 and 126 and 222 and 97, the Animal weight (Group 3 (SCV-07 on days of radiation 0-3 and 6-9), day 28) was 134 and 127 and 158 and 122 and 121 (2×) and 125 and 128 and 120 and 100 and the Animal weight (Group 3 (SCV-07 on days of radiation 0-3 and 6-9), day 29) was 132 and 126 (2×) and 158 and 122 (2×) and 120 and 128 and 121 and 99. The Animal weight (Group 3 (SCV-07 on days of radiation 0-3 and 6-9), day 30) was 135 and 130 and 162 and 126 and 122 and 125 (2×) and 129 and 132 and 102, the Animal weight (Group 3 (SCV-07 on days of radiation 0-3 and 6-9), day 31) was 138 and 132 and 165 and 128 (2×) and 123 and 131 and 134 and 125 and 104 and the Animal weight (Group 3 (SCV-07 on days of radiation 0-3 and 6-9), day 32) was 139 and 133 and 165 and 128 (2×) and 124 and 130 and 131 and 134 and 103. The Animal weight (Group 3 (SCV-07 on days of radiation 0-3 and 6-9), day 33) was 143 and 136 and 172 and 133 (2×) and 127 and 132 and 140 and 131 and 107, the Animal weight (Group 3 (SCV-07 on days of radiation 0-3 and 6-9), day 34) was 143 and 136 and 171 and 134 (2×) and 127 and 133 and 138 and 131 and 107 and the Animal weight (Group 3 (SCV-07 on days of radiation 0-3 and 6-9), day 35) was 144 and 137 and 170 and 135 (2×) and 128 and 134 and 140 and 132 and 110. For the same compound, the Animal weight (Group 3 (SCV-07 on days of radiation 0-3 and 6-9), day −1) was 87 (2×) and 76 (2×) and 93 and 78 and 80 (2×) and 84 and 79, the Animal weight (Group 4 (SCV-07 on days −1, 4, 5 and 10-29), day 0) was 84 and 88 and 85 and 89 (2×) and 90 and 91 and 94 and 73 and 87 and the Animal weight (Group 4 (SCV-07 on days −1, 4, 5 and 10-29), day 1) was 85 and 90 (2×) and 82 and 87 and 89 and 91 and 92 and 72 and 86. The Animal weight (Group 4 (SCV-07 on days −1, 4, 5 and 10-29), day 2) was 89 and 91 (2×) and 96 and 90 and 92 (2×) and 97 and 73 and 85, the Animal weight (Group 4 (SCV-07 on days −1, 4, 5 and 10-29), day 3) was 90 and 94 (3×) and 87 and 86 and 97 and 98 and 73 and 88 and the Animal weight (Group 4 (SCV-07 on days −1, 4, 5 and 10-29), day 4) was 93 and 94 and 85 and 91 and 97 and 96 and 95 and 99 and 73 and 87. The Animal weight (Group 4 (SCV-07 on days −1, 4, 5 and 10-29), day 5) was 94 and 99 and 89 and 97 and 104 and 98 (2×) and 106 and 76 and 87, the Animal weight (Group 4 (SCV-07 on days −1, 4, 5 and 10-29), day 6) was 96 and 102 and 92 and 99 and 107 and 101 (2×) and 106 and 79 and 90 and the Animal weight (Group 4 (SCV-07 on days −1, 4, 5 and 10-29), day 7) was 97 and 103 (2×) and 93 and 101 and 110 and 102 and 109 and 78 and 92. The Animal weight (Group 4 (SCV-07 on days −1, 4, 5 and 10-29), day 8) was 98 and 105 and 91 and 103 and 108 and 102 (2×) and 106 and 79 and 89, the Animal weight (Group 4 (SCV-07 on days −1, 4, 5 and 10-29), day 9) was 101.2 and 110.3 and 95.3 and 108.6 and 111.7 and 104.7 and 106.7 and 110.6 and 80.7 and 90.6 and the Animal weight (Group 4 (SCV-07 on days −1, 4, 5 and 10-29), day 10) was 102 and 110 (2×) and 95 and 114 and 108 (2×) and 112 and 80 and 89. For the same compound, the Animal weight (Group 4 (SCV-07 on days −1, 4, 5 and 10-29), day 11) was 104 and 112 and 96 and 110 and 115 and 107 and 109 and 114 and 78 and 90, the Animal weight (Group 4 (SCV-07 on days −1, 4, 5 and 10-29), day 12) was 105 and 116 and 97 and 115 (2×) and 117 and 109 and 112 and 82 and 93 and the Animal weight (Group 4 (SCV-07 on days −1, 4, 5 and 10-29), day 13) was 107 and 116 and 97 and 117 (2×) and 119 and 110 and 113 and 81 and 88. For the same compound, the Animal weight (Group 4 (SCV-07 on days −1, 4, 5 and 10-29), day 14) was 105 and 116 and 96 and 118 and 121 and 110 and 113 and 117 and 83 and 88, the Animal weight (Group 4 (SCV-07 on days −1, 4, 5 and 10-29), day 15) was 106 and 116 and 96 and 120 and 122 and 111 and 113 and 119 and 83 and 89 and the Animal weight (Group 4 (SCV-07 on days −1, 4, 5 and 10-29), day 16) was 109 and 117 and 96 and 122 and 124 and 112 and 113 and 121 and 86 and 94. The Animal weight (Group 4 (SCV-07 on days −1, 4, 5 and 10-29), day 17) was 111 and 117 and 96 and 123 and 127 and 113 and 114 and 122 and 87 and 97, the Animal weight (Group 4 (SCV-07 on days −1, 4, 5 and 10-29), day 18) was 112 and 114 and 95 and 122 and 127 and 115 and the Animal weight (Group 4 (SCV-07 on days −1, 4, 5 and 10-29), day 19) was 118 and 120 and 98 and 128 and 132 and 119. For the same compound, the Animal weight (Group 4 (SCV-07 on days −1, 4, 5 and 10-29), day 20) was 118 (2×) and 121 and 99 and 128 and 133, the Animal weight (Group 4 (SCV-07 on days −1, 4, 5 and 10-29), day 21) was 120 (2×) and 124 and 101 and 131 and 136 and the Animal weight (Group 4 (SCV-07 on days −1, 4, 5 and 10-29), day 22) was 124 (2×) and 102 and 133 and 134 and 122. For the same compound, the Animal weight (Group 4 (SCV-07 on days −1, 4, 5 and 10-29), day 23) was 124 and 127 and 105 and 135 and 137 and 123, the Animal weight (Group 4 (SCV-07 on days −1, 4, 5 and 10-29), day 24) was 123 and 128 and 107 and 138 (2×) and 124 and the Animal weight (Group 4 (SCV-07 on days −1, 4, 5 and 10-29), day 25) was 125 and 131 and 108 and 139 and 140 and 128. For the same compound, the Animal weight (Group 4 (SCV-07 on days −1, 4, 5 and 10-29), day 26) was 126 and 134 and 110 and 142 and 143 and 128, the Animal weight (Group 4 (SCV-07 on days −1, 4, 5 and 10-29), day 27) was 129 and 134 and 114 and 143 and 144 and 131 and the Animal weight (Group 4 (SCV-07 on days −1, 4, 5 and 10-29), day 28) was 131 (2×) and 136 and 114 and 145 and 146. The Animal weight (Group 4 (SCV-07 on days −1, 4, 5 and 10-29), day 29) was 131 (2×) and 134 and 112 and 146 and 144, the Animal weight (Group 4 (SCV-07 on days −1, 4, 5 and 10-29), day 30) was 133 and 138 and 116 and 150 and 149 and 136 and the Animal weight (Group 4 (SCV-07 on days −1, 4, 5 and 10-29), day 31) was 136 (2×) and 142 and 118 and 152 and 151. For the same compound, the Animal weight (Group 4 (SCV-07 on days −1, 4, 5 and 10-29), day 32) was 138 (2×) and 142 and 119 and 153 and 152, the Animal weight (Group 4 (SCV-07 on days −1, 4, 5 and 10-29), day 33) was 141 (2×) and 146 and 122 and 158 and 157 and the Animal weight (Group 4 (SCV-07 on days −1, 4, 5 and 10-29), day 34) was 140 (2×) and 147 and 122 and 157 and 158. The Animal weight (Group 4 (SCV-07 on days −1, 4, 5 and 10-29), day 35) was 141 (2×) and 146 and 124 and 158 and 159 and the Animal weight (Group 4 (SCV-07 on days −1, 4, 5 and 10-29), day −1) was 80 and 85 (2×) and 82 and 87 (2×) and 84 and 89 and 70 and 81.
